# PubChem BioAssay AID1159590 – NIAID, 2016
# Screen: 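Effect of gene knock-down on p65 moving into nuclei after TLR2 stimulation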
# System: mouse RAW264.7 macrophage reporter cells expressing GFP-p65 and a Tnf promoter-mCherry
# Knock-down reagent: single siRNA against mouse genes
# Timing: 48 to 72 hours after siRNA transfection, then 40 minutes of ligand
# Challenge: Pam3CSK4 (TLR2/1 agonist) for 40 minutes before fixation; dose not given
# Detection: 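GFP-p65 nuclear to cytoplasmic intensity ratio from imaging, normalised per plate by median and MAD, given as robust z against negative controls, mean of replicates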
# Direction: p65 nuclear entry z-score: higher = more p65 moved into nuclei than in negative-control wells
# Rule for the call: In these data the active calls have p65 nuclear entry z-score, replicate mean at about -1.5 or lower, or at about 1.5 or higher
# Calls: active = strong change, up or down; inactive = little change
# Here is an unselected part of 756 reagents. Over the whole deposit, 128 (17%) are marked active. 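Calls are two-sided: both reduced and increased p65 nuclear entry count as active.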 Unmarked entries are inactive. Reagents against one gene are numbered here. Not given: the amount of reagent.
gene symbol,reagent no.,"p65 nuclear entry z-score, replicate mean"
Nfkbie (GeneID 18037),1,0.144
Nfkbie (GeneID 18037),2,-0.637
Nfkbie (GeneID 18037),3,-1.02
Nfkbie (GeneID 18037),4,1.31
Nfkbie (GeneID 18037),5,-0.829
Nfkbie (GeneID 18037),6,-0.646
Egr2 (GeneID 13654),1,-0.948
Egr2 (GeneID 13654),2,-0.218
Egr2 (GeneID 13654),3,-1.42
Egr2 (GeneID 13654),4,2.75 (active)
Egr2 (GeneID 13654),5,-0.506
Egr2 (GeneID 13654),6,2.04 (active)
Map2k3 (GeneID 26397),1,-0.352
Map2k3 (GeneID 26397),2,0.278
Map2k3 (GeneID 26397),3,0.0695
Map2k3 (GeneID 26397),4,2.39 (active)
Map2k3 (GeneID 26397),5,-0.993
Map2k3 (GeneID 26397),6,0.842
Mapk11 (GeneID 19094),1,0.883
Mapk11 (GeneID 19094),2,-0.649
Mapk11 (GeneID 19094),3,-0.267
Mapk11 (GeneID 19094),4,0.242
Mapk11 (GeneID 19094),5,-0.95
Mapk11 (GeneID 19094),6,0.412
Pik3r3 (GeneID 18710),1,1.08
Pik3r3 (GeneID 18710),2,0.184
Pik3r3 (GeneID 18710),3,-0.766
Pik3r3 (GeneID 18710),4,-1.78 (active)
Pik3r3 (GeneID 18710),5,-1.9 (active)
Pik3r3 (GeneID 18710),6,3.86 (active)
Atf2 (GeneID 11909),1,-0.634
Atf2 (GeneID 11909),2,-1.03
Atf2 (GeneID 11909),3,-1.41
Atf2 (GeneID 11909),4,-0.856
Atf2 (GeneID 11909),5,-0.766
Atf2 (GeneID 11909),6,-0.223
Pik3cd (GeneID 18707),1,0.217
Pik3cd (GeneID 18707),2,-0.821
Pik3cd (GeneID 18707),3,-0.311
Pik3cd (GeneID 18707),4,0.873
Pik3cd (GeneID 18707),5,-0.526
Pik3cd (GeneID 18707),6,-0.0666
Tollip (GeneID 54473),1,-0.0671
Tollip (GeneID 54473),2,-0.793
Tollip (GeneID 54473),3,-2.52 (active)
Tollip (GeneID 54473),4,-1.3
Tollip (GeneID 54473),5,-1.35
Tollip (GeneID 54473),6,0.633
Il12a (GeneID 16159),1,-0.3
Il12a (GeneID 16159),2,-0.637
Il12a (GeneID 16159),3,0.663
Il12a (GeneID 16159),4,0.0943
Il12a (GeneID 16159),5,1.13
Il12a (GeneID 16159),6,-0.963
Il12b (GeneID 16160),1,0.0204
Il12b (GeneID 16160),2,1.47
Il12b (GeneID 16160),3,0.0891
Il12b (GeneID 16160),4,-0.795
Il12b (GeneID 16160),5,-1.8 (active)
Il12b (GeneID 16160),6,-1.41
Ly86 (GeneID 17084),1,-0.421
Ly86 (GeneID 17084),2,-1.47
Ly86 (GeneID 17084),3,-0.129
Ly86 (GeneID 17084),4,-0.188
Ly86 (GeneID 17084),5,0.163
Ly86 (GeneID 17084),6,-0.92
Ifnar2 (GeneID 15976),1,2.14 (active)
Ifnar2 (GeneID 15976),2,-0.324
Ifnar2 (GeneID 15976),3,0.647
Ifnar2 (GeneID 15976),4,1.83 (active)
Ifnar2 (GeneID 15976),5,0.0594
Ifnar2 (GeneID 15976),6,3.33 (active)
Tirap (GeneID 117149),1,-1.89 (active)
Tirap (GeneID 117149),2,-0.108
Tirap (GeneID 117149),3,-3.38 (active)
Tirap (GeneID 117149),4,-1.35
Tirap (GeneID 117149),5,0.215
Tirap (GeneID 117149),6,-1.91 (active)
Fos (GeneID 14281),1,-3.01 (active)
Fos (GeneID 14281),2,-0.346
Fos (GeneID 14281),3,0.325
Fos (GeneID 14281),4,-1.41
Fos (GeneID 14281),5,-0.0152
Fos (GeneID 14281),6,0.461
Traf3 (GeneID 22031),1,0.178
Traf3 (GeneID 22031),2,-0.2
Traf3 (GeneID 22031),3,-0.297
Traf3 (GeneID 22031),4,0.533
Traf3 (GeneID 22031),5,-0.403
Traf3 (GeneID 22031),6,0.0584
Ripk1 (GeneID 19766),1,-0.654
Ripk1 (GeneID 19766),2,0.282
Ripk1 (GeneID 19766),3,0.621
Ripk1 (GeneID 19766),4,-1.29
Ripk1 (GeneID 19766),5,-0.0758
Ripk1 (GeneID 19766),6,0.91
Mapkapk2 (GeneID 17164),1,-1.77 (active)
Mapkapk2 (GeneID 17164),2,0.488
Mapkapk2 (GeneID 17164),3,1.13
Mapkapk2 (GeneID 17164),4,-1.34
Mapkapk2 (GeneID 17164),5,0.514
Mapkapk2 (GeneID 17164),6,-1.15
Nfkb1 (GeneID 18033),1,0.335
Nfkb1 (GeneID 18033),2,0.263
Nfkb1 (GeneID 18033),3,0.239
Nfkb1 (GeneID 18033),4,0.663
Nfkb1 (GeneID 18033),5,-0.612
Nfkb1 (GeneID 18033),6,0.699
Irf7 (GeneID 54123),1,-1.6 (active)
Irf7 (GeneID 54123),2,1.72 (active)
Irf7 (GeneID 54123),3,1.03
Irf7 (GeneID 54123),4,-0.59
Irf7 (GeneID 54123),5,2.33 (active)
Irf7 (GeneID 54123),6,-1.13
Pik3r1 (GeneID 18708),1,-0.55
Pik3r1 (GeneID 18708),2,-0.66
Pik3r1 (GeneID 18708),3,-0.0717
Pik3r1 (GeneID 18708),4,-1.67 (active)
Pik3r1 (GeneID 18708),5,-1
Pik3r1 (GeneID 18708),6,-1.38
Myd88 (GeneID 17874),1,0.436
Myd88 (GeneID 17874),2,-1.65 (active)
Myd88 (GeneID 17874),3,-2.78 (active)
Myd88 (GeneID 17874),4,-0.248
Myd88 (GeneID 17874),5,0.0717
Myd88 (GeneID 17874),6,-0.919
Arf6 (GeneID 11845),1,-0.567
Arf6 (GeneID 11845),2,-0.324
Arf6 (GeneID 11845),3,-1.42
Arf6 (GeneID 11845),4,-0.792
Arf6 (GeneID 11845),5,-0.613
Arf6 (GeneID 11845),6,-1.55 (active)
Irak4 (GeneID 266632),1,-1.05
Irak4 (GeneID 266632),2,-2.77 (active)
Irak4 (GeneID 266632),3,-2.27 (active)
Irak4 (GeneID 266632),4,-1.42
Irak4 (GeneID 266632),5,3.16 (active)
Irak4 (GeneID 266632),6,1.43
Map3k14 (GeneID 53859),1,-1.04
Map3k14 (GeneID 53859),2,1.32
Map3k14 (GeneID 53859),3,-0.417
Map3k14 (GeneID 53859),4,-0.876
Map3k14 (GeneID 53859),5,7.47 (active)
Map3k14 (GeneID 53859),6,3.37 (active)

Entries listed so far called active, once more:
gene symbol,reagent no.,"p65 nuclear entry z-score, replicate mean"
Egr2 (GeneID 13654),4,2.75 (active)
Egr2 (GeneID 13654),6,2.04 (active)
Map2k3 (GeneID 26397),4,2.39 (active)
Pik3r3 (GeneID 18710),4,-1.78 (active)
Pik3r3 (GeneID 18710),5,-1.9 (active)
Pik3r3 (GeneID 18710),6,3.86 (active)
Tollip (GeneID 54473),3,-2.52 (active)
Il12b (GeneID 16160),5,-1.8 (active)
Ifnar2 (GeneID 15976),1,2.14 (active)
Ifnar2 (GeneID 15976),4,1.83 (active)
Ifnar2 (GeneID 15976),6,3.33 (active)
Tirap (GeneID 117149),1,-1.89 (active)
Tirap (GeneID 117149),3,-3.38 (active)
Tirap (GeneID 117149),6,-1.91 (active)
Fos (GeneID 14281),1,-3.01 (active)
Mapkapk2 (GeneID 17164),1,-1.77 (active)
Irf7 (GeneID 54123),1,-1.6 (active)
Irf7 (GeneID 54123),2,1.72 (active)
Irf7 (GeneID 54123),5,2.33 (active)
Pik3r1 (GeneID 18708),4,-1.67 (active)
Myd88 (GeneID 17874),2,-1.65 (active)
Myd88 (GeneID 17874),3,-2.78 (active)
Arf6 (GeneID 11845),6,-1.55 (active)
Irak4 (GeneID 266632),2,-2.77 (active)
Irak4 (GeneID 266632),3,-2.27 (active)
Irak4 (GeneID 266632),5,3.16 (active)
Map3k14 (GeneID 53859),5,7.47 (active)
Map3k14 (GeneID 53859),6,3.37 (active)
